Test [1] concerns the target yeast SBDS orthologue Sdo1 (recombinant, for SAXS) (yeast (S. cerevisiae)) (UniProt Q07953). Briefly: SAXS coupled to on-line size exclusion chromatography; yeast Sdo1, EFL1 and the complex EFL1•Sdo1 at 10, 6.5 and 8 mg/mL injected onto a Shodex KW-403 column; 50 mM Tris pH 8.0, 10% glycerol, 300 mM NaCl, 5 mM MgCl2; both purified. For orientation: In gel filtration, larger molecules generally elute earlier.

Test [2] concerns the target yeast EFL1 (recombinant, for SAXS) (yeast (S. cerevisiae)) (UniProt P53893). Described as above.

Results are given in words; binding and its absence hold for the method and conditions named.

B1: yeast SBDS orthologue Sdo1 (recombinant, for SAXS) (protein, UniProt Q07953 1-250)
chain: MPINQPSGQIKLTNVSLVRLKKARKRFEVACYQNKVQDYRKGIEKDLDEVLQIHQVFMNVSKGLVANKEDLQKCFGTTNVDDVIEEIMHKGEIQLSEKERQLMLNKVNNEMLTIVSAKCINPVSKKRYPPTMIHKALQELKFSPVINKPAKLQALEAIKLLVSKQIIPIVRAKMKVKVAISEPSRQPELIEKISKLIASSPGESTKPELDPWTCTGLIDPVNYRDLMTLCDKKGTVQVLDMAVIDNTTHN
In the case of B1, the binding entry in test [1] is reported as “no binding”.

B2: yeast EFL1 (recombinant, for SAXS) (enzyme, yeast (S. cerevisiae), UniProt P53893 1-1110, looked up)
chain: MPRVESETYKRLQNDPSCIRNICIVAHVDHGKTSLSDSLLASNGIISQRLAGKIRFLDARPDEQLRGITMESSAISLYFRVLRKQEGSDEPLVSEHLVNLIDSPGHIDFSSEVSAASRLCDGAVVLVDVVEGVCSQTVTVLRQCWTEKLKPILVLNKIDRLITELQLTPQEAYIHLSKVIEQVNSVIGSFFANERQLDDLFWREQLEKNENAEYIEKDDSGIYFNPTDNNVIFASAIDGWGFNIGQLAKFYEQKLGAKRENLQKVLWGDFYMDPKTKKIINNKGLKGRSLKPLFTSLILENIWKIYQNIITSRDSEMVEKIAKTLNIKLLARDLRSKDDKQLLRTIMGQWLPVSTAVLLTVIEKLPSPLESQTDRLNTILVSESDTAAMDPRLLKAMKTCDKEGPVSAYVSKMLSIPREELPVESKRIASSDELMERSRKAREEALNAAKHAGMVENMAMMDLNDNSKNTSDLYKRAKDTVMTPEVGEQTKPKPSRNNDVFCVVSEPSSALDLEFEYEGEDDSDSQDNFGLDFVPTDIDPNDPLSSMFEYEEEDPLLESIKQISEDVNDEVDDIFDEKEECLVAFARIYSGTLRVGQEISVLGPKYDPKCPEEHIETAIITHLYLFMGKELVPLDVCPSGNIVGIRGLAGKVLKSGTLIEKGVQGVNLAGVNFHFTPIVRVAVEPANPVEMSKLVRGLKLLDQADPCVHTYVENTGEHILCTAGELHLERCLKDLTERFAGIEITHSEPAIPYRETFLSASDMNPPQNSQLGRGVHELLLSQYKITFRTFPLSGKVTDFLSQHQNSIKNILKTSTSSMDPVIESTGSSFLDKKSLLVAFEEVINQEEKSRELLSGFKVKLAGFGPSRVGCNILLSQDNLLGSLFEGTPAAFEYSDSIKNGFQLAVSEGPLANEPVQGMCVLVESVHKMSQDEIESIEDPRYQQHIVDLSGRLITSTRDAIHEAFLDWSPRIMWAIYSCDIQTSVDVLGKVYAVILQRHGKIISEEMKEGTPFFQIEAHVPVVEAFGLSEDIRKRTSGAAQPQLVFSGFECIDLDPFWVPTTEEELEELGDTADRENIARKHMNAIRRRKGLFIEEKVVENAEKQRTLKKN
notes: yeast EFL1 (GTPase); the model's rigid parts run over residues 1-1110; source: S. cerevisiae BCY123 (pRS426 backbone, GAL1/10 promoter), purified
Take B2: the binding result in test [2] is recorded as “no binding”.

Values taken from paper PMC6321010, “Interaction of the GTPase Elongation Factor Like-1 with the Shwachman-Diamond Syndrome Protein and Its Missense Mutations” (International Journal of Molecular Sciences, 2018).
